Data set [1] addresses T1, Mei-P26 NHL wt (Drosophila melanogaster (Oregon-R)) (UniProt M9PH32).
T1 sequence (looked up): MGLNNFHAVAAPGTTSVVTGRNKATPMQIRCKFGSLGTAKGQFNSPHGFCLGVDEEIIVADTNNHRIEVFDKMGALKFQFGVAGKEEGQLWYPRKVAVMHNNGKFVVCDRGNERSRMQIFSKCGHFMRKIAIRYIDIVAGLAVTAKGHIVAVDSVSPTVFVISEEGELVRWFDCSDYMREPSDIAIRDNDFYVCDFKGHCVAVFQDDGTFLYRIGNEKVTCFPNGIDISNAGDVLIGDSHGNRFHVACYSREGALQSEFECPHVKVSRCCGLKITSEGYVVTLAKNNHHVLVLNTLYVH
Briefly: MST. As to conditions: MST: 20 mM Hepes/KOH pH 7.5, 100 mM NaCl, 5 mM MgCl2, 5 mM DTT, 0.0125% Tween 20, 25 C (Brat: 20 mM Tris 8.0, 150 mM NaCl, 1 mM MgCl2, 5 mM DTT, 0.0125% Tween 20). EMSA; recombinant protein; residues 908-1206; protein details: GST removed by TEV; label: Cy5. For orientation: A gel shift assay detects complexes by their altered migration in electrophoresis.

The target of data set [2] is T2, Mei-P26 NHL R1017A (Drosophila melanogaster (Oregon-R)) (UniProt M9PH32).
T2 sequence (looked up): T1 sequence (looked up) with R110A
Briefly: MST. As to conditions: MST: 20 mM Hepes/KOH pH 7.5, 100 mM NaCl, 5 mM MgCl2, 5 mM DTT, 0.0125% Tween 20, 25 C (Brat: 20 mM Tris 8.0, 150 mM NaCl, 1 mM MgCl2, 5 mM DTT, 0.0125% Tween 20). EMSA, recombinant protein, residues 908-1206, protein details: GST removed by TEV.

Data set [3] concerns the target T3, Mei-P26 NHL KR K1172A,R1175A (Drosophila melanogaster (Oregon-R)) (UniProt M9PH32).
T3 sequence (looked up): T1 sequence (looked up) with K265A, R268A
Briefly: MST. As to conditions: MST: 20 mM Hepes/KOH pH 7.5, 100 mM NaCl, 5 mM MgCl2, 5 mM DTT, 0.0125% Tween 20, 25 C (Brat: 20 mM Tris 8.0, 150 mM NaCl, 1 mM MgCl2, 5 mM DTT, 0.0125% Tween 20). EMSA; recombinant protein; residues 908-1206; protein details: GST removed by TEV; label: Cy5.

Data set [4] deals with T4, Brat NHL (Drosophila melanogaster) (UniProt Q8MQJ9).
T4 sequence (looked up, limits assumed): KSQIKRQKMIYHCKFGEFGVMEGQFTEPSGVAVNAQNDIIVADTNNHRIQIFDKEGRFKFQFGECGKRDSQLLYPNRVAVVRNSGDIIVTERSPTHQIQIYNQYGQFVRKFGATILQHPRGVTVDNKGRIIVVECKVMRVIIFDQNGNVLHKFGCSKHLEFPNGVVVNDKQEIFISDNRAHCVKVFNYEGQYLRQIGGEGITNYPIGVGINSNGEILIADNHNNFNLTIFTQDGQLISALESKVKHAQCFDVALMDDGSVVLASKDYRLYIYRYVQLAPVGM
Briefly: MST. As to conditions: MST: 20 mM Hepes/KOH pH 7.5, 100 mM NaCl, 5 mM MgCl2, 5 mM DTT, 0.0125% Tween 20, 25 C (Brat: 20 mM Tris 8.0, 150 mM NaCl, 1 mM MgCl2, 5 mM DTT, 0.0125% Tween 20). EMSA; recombinant protein; label: Cy5.

In data set [5] the target is T5, Mei-P26 NHL R1175A (Drosophila melanogaster (Oregon-R)) (UniProt M9PH32).
T5 sequence (looked up): T1 sequence (looked up) with R268A
Briefly: MST. As to conditions: MST: 20 mM Hepes/KOH pH 7.5, 100 mM NaCl, 5 mM MgCl2, 5 mM DTT, 0.0125% Tween 20, 25 C (Brat: 20 mM Tris 8.0, 150 mM NaCl, 1 mM MgCl2, 5 mM DTT, 0.0125% Tween 20). EMSA; recombinant protein; residues 908-1206; protein details: GST removed by TEV; label: Cy5.

For data set [6], the target named is T6, Mei-P26 NHL K1172A (Drosophila melanogaster (Oregon-R)) (UniProt M9PH32).
T6 sequence (looked up): T1 sequence (looked up) with K265A
Briefly: MST. As to conditions: MST: 20 mM Hepes/KOH pH 7.5, 100 mM NaCl, 5 mM MgCl2, 5 mM DTT, 0.0125% Tween 20, 25 C (Brat: 20 mM Tris 8.0, 150 mM NaCl, 1 mM MgCl2, 5 mM DTT, 0.0125% Tween 20). EMSA; recombinant protein; residues 908-1206; protein details: GST removed by TEV; label: Cy5.

The target of data set [7] is T7, Mei-P26 NHL RKR R1150A,K1172A,R1175A (Drosophila melanogaster (Oregon-R)) (UniProt M9PH32).
T7 sequence (looked up): T1 sequence (looked up) with R243A, K265A, R268A
Briefly: MST. As to conditions: MST: 20 mM Hepes/KOH pH 7.5, 100 mM NaCl, 5 mM MgCl2, 5 mM DTT, 0.0125% Tween 20, 25 C (Brat: 20 mM Tris 8.0, 150 mM NaCl, 1 mM MgCl2, 5 mM DTT, 0.0125% Tween 20). EMSA; recombinant protein; residues 908-1206; protein details: GST removed by TEV; label: Cy5 (MST), 32P (EMSA).

For data set [8], the target named is T7, Mei-P26 NHL RKR R1150A,K1172A,R1175A (Drosophila melanogaster (Oregon-R)). Description: EMSA. As to conditions: recombinant protein; residues 908-1206; protein details: GST removed by TEV; label: 32P.
The target of data set [9] is T1, Mei-P26 NHL wt (Drosophila melanogaster (Oregon-R)). Briefly: EMSA. As to conditions: recombinant protein; residues 908-1206; protein details: GST removed by TEV; label: 32P.

Numbering of substitutions follows the chain as printed. For some assays here: A negative result means that nothing was seen under these conditions. For some assays here: At least one verdict rests on a figure or table, not on a statement of the authors. Tags and fusion partners may be left off the protein sequences shown. For some assays here: A weaker result is weaker than the reference pair of the same experiment. For some assays here: For at least one entry, the source does not settle the construct or the ends of the probe.

Usually Kd stands for a measure of binding affinity in units of concentration.

ACAUUUU [SEQ3Inv]: the binding result in [1] was “binds more weakly”. As to UUGUUAA [BRAT1], in data set [1], the binding result is “binds more weakly”. Regarding UUGUUUU [SEQ13G], the binding result in data set [1] was “binds more weakly”. Turning to UUUACAA [SEQ4], the Kd in data set [1] was above 3 µM. In the case of UUUGUUU [SEQ14G], the binding result in data set [1] is on record as “binds more weakly”. In the case of UUUUACA [SEQ3], the binding result in data set [2] (label: Cy5), in data set [3], in data set [5] and in [6] was “binds more weakly” throughout. For the same sequence, the dissociation constant (Kd) in data set [4] was above 5 µM. As for UUUUCAC, the binding result in data set [1] is “binds more weakly”. Turning to UUUUUACA [SEQ35U], in [1], the binding result was “binds”. With UUUUUUUACA [SEQ37U], the binding result in data set [1] is “binds”. Take UUUUUUUUU [U9]: the binding result was “no binding” in data set [7] and “binds more weakly” in [2] (label: Cy5 (MST), 32P (EMSA)).

Turning to UUUUUUUUUUUUUUUU [U16], the binding result is given as “no binding” in data set [8] and “binds” in [9].

The record behind these values is paper PMC9070667, “Molecular insights into RNA recognition and gene regulation by the TRIM-NHL protein Mei-P26”.
